Laboratory results: PubChem BioAssay AID1224830 (NIAID, 2016)
Screen: 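Genes whose knock-down alters the TNF-alpha reporter response to LPS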 (primary screen). Cells: human THP-1 monocytic leukaemia cells, TNF dual-luciferase reporter clone, PMA-differentiated to macrophage-like cells. Reagents: siRNA pool against human genes, 50 nM. Duration: LPS for 4 h, given about 3 days after siRNA transfection. Treatment: bacterial LPS (TLR4 ligand), 10 ng/ml. Measured: 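Ratio of firefly to renilla light, scaled to the plate median and expressed as a robust z-score per replicate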. Direction: TNF reporter robust z-score: higher = stronger TNF reporter response to LPS. Call rule: 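Each well counts as active if its z-score is over 2.8 or under -1.5; controls are left without a call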.
In all, the deposit lists about 18,000 reagents; below is an unselected part. In the full data, about 2,900 (16%) are marked active. 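Calls are made per well; low scores hint the gene aids the LPS response, high scores that it dampens it.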 Repeated entries: four replicate wells of each siRNA pool.

PKD2L1 scored TNF reporter robust z-score -0.82; inactive.
With knock-down of PKD2L1, the record shows TNF reporter robust z-score -0.55; inactive.
PKD2L1 gave TNF reporter robust z-score -0.14; inactive.
PKD2L1 gave TNF reporter robust z-score 1.46; inactive.
FBXO17 showed TNF reporter robust z-score 1.3; inactive.
FBXO17 showed TNF reporter robust z-score -0.47; inactive.
Silencing of FBXO17 gave: TNF reporter robust z-score 0.09; inactive.
Against FBXO17 the deposit lists TNF reporter robust z-score 2.87; active.
With knock-down of CCNO, the record shows TNF reporter robust z-score 0.67; inactive.
CCNO gave TNF reporter robust z-score 0.97; inactive.
For CCNO, the entry reads TNF reporter robust z-score 0.89; inactive.
PKD1L1 scored TNF reporter robust z-score -0.34; inactive.
Silencing of PKD1L1 came out at: TNF reporter robust z-score -0.87; inactive.
For PKD1L1 the deposit lists TNF reporter robust z-score -0.56; inactive.
NAA60 gave TNF reporter robust z-score -0.94; inactive.
NAA60 showed TNF reporter robust z-score -0.56; inactive.
Against NAA60, the entry reads TNF reporter robust z-score -0.58; inactive.
Knock-down of NAA60 came out at: TNF reporter robust z-score -0.68; inactive.
HDAC11 showed TNF reporter robust z-score -0.26; inactive.
HDAC11 showed TNF reporter robust z-score 0.03; inactive.
HDAC11 showed TNF reporter robust z-score 0.3; inactive.
Against HDAC11, the values are TNF reporter robust z-score 0.79; inactive.
ZYX gave TNF reporter robust z-score -0.42; inactive.
ZYX showed TNF reporter robust z-score 0.24; inactive.
ZYX scored TNF reporter robust z-score -0.06; inactive.
After knock-down of ZYX the results were TNF reporter robust z-score 0.73; inactive.
After knock-down of IL5RA, the record shows TNF reporter robust z-score 2.57; inactive.
IL5RA showed TNF reporter robust z-score 2.73; inactive.
IL5RA scored TNF reporter robust z-score 2.24; inactive.
IL5RA scored TNF reporter robust z-score 1.52; inactive.

Entries listed above called active:
FBXO17 → TNF reporter robust z-score: 2.87; Outcome: active

Next entries:
Knock-down of ZNF772 gave: TNF reporter robust z-score -0.22; inactive.
For ZNF772 the deposit lists TNF reporter robust z-score -0.78; inactive.
ZNF772 gave TNF reporter robust z-score -0.61; inactive.
With knock-down of ZNF772, the record shows TNF reporter robust z-score 0; inactive.
CHN1 gave TNF reporter robust z-score 0.82; inactive.
CHN1 showed TNF reporter robust z-score 2.13; inactive.
For CHN1 the deposit lists TNF reporter robust z-score 0.78; inactive.
With knock-down of CHN1 the results were TNF reporter robust z-score 1.23; inactive.
After knock-down of MAPK6, the record shows TNF reporter robust z-score 0; inactive.
Depletion of MAPK6 came out at: TNF reporter robust z-score -0.59; inactive.
For MAPK6 the deposit lists TNF reporter robust z-score -0.72; inactive.
For MAPK6 the deposit lists TNF reporter robust z-score 0.79; inactive.
With knock-down of PSMB3, the screen gave TNF reporter robust z-score -1.89; active.
After knock-down of PSMB3 the results were TNF reporter robust z-score -1.95; active.
Depletion of PSMB3 came out at: TNF reporter robust z-score -1.64; active.
PSMB3 showed TNF reporter robust z-score -1.37; inactive.
After knock-down of C1R the results were TNF reporter robust z-score 0.48; inactive.
After knock-down of C1R, the record shows TNF reporter robust z-score 0.14; inactive.
With knock-down of C1R, the screen gave TNF reporter robust z-score 0.42; inactive.
C1R gave TNF reporter robust z-score 0.69; inactive.
MAK16 gave TNF reporter robust z-score 0.12; inactive.
Knock-down of MAK16 resulted in: TNF reporter robust z-score 0.18; inactive.
Knock-down of MAK16 gave: TNF reporter robust z-score 1.52; inactive.
After knock-down of MAK16, the record shows TNF reporter robust z-score 1.03; inactive.
Silencing of CDYL came out at: TNF reporter robust z-score 0.63; inactive.
With knock-down of CDYL the results were TNF reporter robust z-score -0.33; inactive.
CDYL gave TNF reporter robust z-score 0.47; inactive.
Depletion of CDYL resulted in: TNF reporter robust z-score -1; inactive.
Knock-down of RRAS2 gave: TNF reporter robust z-score 0.69; inactive.
For RRAS2, the values are TNF reporter robust z-score 0.23; inactive.
For RRAS2, the values are TNF reporter robust z-score 0.32; inactive.
RRAS2 gave TNF reporter robust z-score 1.41; inactive.
